In publication PMC3689669:
Results are given in words; binding and its absence hold for the method and conditions named.

Chains of the proteins cited; added tags and fusions are not shown. Residues count along the entry.
UniProt P02751, residues 1266-1908: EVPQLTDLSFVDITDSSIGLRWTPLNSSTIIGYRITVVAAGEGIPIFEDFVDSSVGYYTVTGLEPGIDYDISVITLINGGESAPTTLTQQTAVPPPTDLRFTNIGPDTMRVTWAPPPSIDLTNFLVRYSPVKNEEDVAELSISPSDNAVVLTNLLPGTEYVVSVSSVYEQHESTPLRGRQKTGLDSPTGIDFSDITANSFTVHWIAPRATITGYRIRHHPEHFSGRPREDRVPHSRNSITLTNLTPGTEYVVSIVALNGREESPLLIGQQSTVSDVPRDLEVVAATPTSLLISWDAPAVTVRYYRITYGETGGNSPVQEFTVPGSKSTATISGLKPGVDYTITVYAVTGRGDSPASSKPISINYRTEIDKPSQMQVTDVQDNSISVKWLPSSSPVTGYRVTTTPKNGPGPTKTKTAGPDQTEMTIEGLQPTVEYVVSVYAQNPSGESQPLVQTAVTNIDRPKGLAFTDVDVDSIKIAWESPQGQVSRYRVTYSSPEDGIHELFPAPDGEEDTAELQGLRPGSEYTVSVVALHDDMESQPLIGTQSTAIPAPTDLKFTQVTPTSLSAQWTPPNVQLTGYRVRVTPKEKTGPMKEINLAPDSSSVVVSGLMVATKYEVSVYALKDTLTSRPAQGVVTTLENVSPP
UniProt A0A0H2XKG3, residues 163-480: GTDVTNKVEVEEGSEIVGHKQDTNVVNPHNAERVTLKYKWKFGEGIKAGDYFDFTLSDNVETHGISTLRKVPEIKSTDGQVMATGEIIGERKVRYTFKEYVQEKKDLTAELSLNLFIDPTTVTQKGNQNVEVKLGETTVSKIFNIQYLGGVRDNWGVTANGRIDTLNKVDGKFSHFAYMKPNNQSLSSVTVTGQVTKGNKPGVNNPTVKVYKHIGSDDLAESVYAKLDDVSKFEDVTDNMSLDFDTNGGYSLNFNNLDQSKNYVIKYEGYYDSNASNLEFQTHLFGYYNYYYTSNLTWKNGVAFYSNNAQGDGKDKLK

Molecular target: Recombinant fibronectin fragment, residues 1266–1908 (extra domain B plus type III modules 8–13 and the initial region of module 14) (UniProt P02751)
Assay: ELISA; Fn (1 µg/well) and Fn fragments (250 ng/well) coated; SpsD167–519 in solution, detected with anti-SpsD37–519 antibody; FnBPB163–480 as control, detected with anti-FnBPB163–480 IgG; both purified

FnBPB_(163–480) (from UniProt A0A0H2XKG3 163-480) (domain or fragment)
binding: no binding
